Values quoted from earlier work, collected in patent US20140243414A1, “PHARMACEUTICAL COMPOSITIONS OF CETP INHIBITORS” (Japan Tobacco Inc., priority 2003, published 2014).
Like-named read-outs stand apart in the source and are kept apart here. At least one compound was matched to its structure with a doubt left.

Tests used:
[1] = tested on: HDL cholesterol, LDL cholesterol; settings: humans; de Grooth et al.; cited from earlier work
[2] = tested on: HDL cholesterol, LDL cholesterol; settings: rabbits, Okamoto et al., cited from earlier work
rabbits = settings: Okamoto et al.; cited from earlier work

SMILES: CCC(CC)CC1(C(=O)Nc2ccccc2SC(=O)C(C)C)CCCCC1 [Compound I, S-[2-([[1-(2-ethylbutyl)cyclohexyl]carbonyl]amino)phenyl]2-methylpropanethioate]
- Effect on LDL cholesterol [1]: decrease LDL cholesterol
- Effect on plasma HDL cholesterol [1]: increase plasma HDL cholesterol
- Effect on LDL cholesterol [2]: decrease LDL cholesterol
- Effect on plasma HDL cholesterol ([2]; Shinkai et al., Kobayashi et al.): increase plasma HDL cholesterol
- Effect on progression of atherosclerosis (rabbits): inhibits the progression of atherosclerosis
